The text below walks through data of PMC4103893.

Amino acid sequences for entries named in this document (tags omitted). A change or cut given only in a name is not applied to a line headed by its entry.
UniProt O14672: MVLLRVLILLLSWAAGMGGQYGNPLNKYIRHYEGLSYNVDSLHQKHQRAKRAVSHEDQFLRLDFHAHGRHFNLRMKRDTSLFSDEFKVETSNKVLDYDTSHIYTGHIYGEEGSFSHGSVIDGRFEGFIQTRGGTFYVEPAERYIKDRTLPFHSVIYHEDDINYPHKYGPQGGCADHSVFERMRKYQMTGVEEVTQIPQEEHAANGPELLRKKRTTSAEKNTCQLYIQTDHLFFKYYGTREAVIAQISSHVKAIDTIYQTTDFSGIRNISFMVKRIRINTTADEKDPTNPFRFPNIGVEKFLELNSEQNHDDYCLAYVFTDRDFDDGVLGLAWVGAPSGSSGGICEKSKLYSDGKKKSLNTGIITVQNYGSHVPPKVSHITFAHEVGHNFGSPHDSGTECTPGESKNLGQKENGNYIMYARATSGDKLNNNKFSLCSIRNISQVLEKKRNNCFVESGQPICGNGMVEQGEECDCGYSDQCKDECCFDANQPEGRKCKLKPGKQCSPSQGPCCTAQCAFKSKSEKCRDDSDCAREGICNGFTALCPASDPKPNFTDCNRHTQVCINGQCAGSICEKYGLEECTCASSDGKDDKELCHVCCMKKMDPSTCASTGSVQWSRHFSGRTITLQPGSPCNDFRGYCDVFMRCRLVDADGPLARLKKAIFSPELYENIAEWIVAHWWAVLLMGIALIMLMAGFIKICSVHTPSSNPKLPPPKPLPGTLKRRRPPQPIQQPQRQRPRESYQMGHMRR
UniProt O35598: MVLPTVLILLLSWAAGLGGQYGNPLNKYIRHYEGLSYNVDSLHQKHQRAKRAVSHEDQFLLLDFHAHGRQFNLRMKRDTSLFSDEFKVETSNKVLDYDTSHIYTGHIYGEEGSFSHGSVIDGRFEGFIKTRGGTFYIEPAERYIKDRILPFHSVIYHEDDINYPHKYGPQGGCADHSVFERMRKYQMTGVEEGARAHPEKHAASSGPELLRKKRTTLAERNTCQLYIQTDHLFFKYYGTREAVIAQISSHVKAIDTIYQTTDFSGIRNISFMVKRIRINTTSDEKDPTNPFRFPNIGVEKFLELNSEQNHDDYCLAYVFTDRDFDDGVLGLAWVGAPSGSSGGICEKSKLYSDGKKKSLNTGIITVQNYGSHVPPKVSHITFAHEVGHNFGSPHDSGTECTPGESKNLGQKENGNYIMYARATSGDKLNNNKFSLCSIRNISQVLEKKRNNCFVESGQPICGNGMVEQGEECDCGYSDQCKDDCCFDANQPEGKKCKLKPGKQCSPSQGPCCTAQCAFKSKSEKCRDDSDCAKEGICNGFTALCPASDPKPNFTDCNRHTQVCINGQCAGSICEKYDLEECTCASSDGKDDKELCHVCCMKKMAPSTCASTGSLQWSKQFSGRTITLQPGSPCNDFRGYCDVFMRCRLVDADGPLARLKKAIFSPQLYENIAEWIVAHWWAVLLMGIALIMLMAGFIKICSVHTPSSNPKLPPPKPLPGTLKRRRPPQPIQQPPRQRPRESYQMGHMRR
UniProt P62993: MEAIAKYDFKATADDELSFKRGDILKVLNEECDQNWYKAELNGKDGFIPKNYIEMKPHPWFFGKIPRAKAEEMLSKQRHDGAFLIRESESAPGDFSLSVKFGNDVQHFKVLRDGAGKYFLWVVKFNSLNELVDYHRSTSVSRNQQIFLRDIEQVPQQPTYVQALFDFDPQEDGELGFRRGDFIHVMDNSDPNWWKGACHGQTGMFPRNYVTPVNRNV
UniProt Q99961: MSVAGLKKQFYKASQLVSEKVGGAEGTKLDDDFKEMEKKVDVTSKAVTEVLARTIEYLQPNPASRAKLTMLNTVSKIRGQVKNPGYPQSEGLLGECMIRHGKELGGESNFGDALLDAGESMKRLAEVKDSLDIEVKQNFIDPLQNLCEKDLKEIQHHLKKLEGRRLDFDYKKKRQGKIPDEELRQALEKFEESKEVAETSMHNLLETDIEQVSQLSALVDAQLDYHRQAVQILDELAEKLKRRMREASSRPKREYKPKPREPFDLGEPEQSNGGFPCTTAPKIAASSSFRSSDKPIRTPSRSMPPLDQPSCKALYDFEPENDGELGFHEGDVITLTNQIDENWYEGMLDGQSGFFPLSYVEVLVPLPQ

Results are given in words; binding and its absence hold for the method and conditions named. Binding seen in cells or lysates may run through a third protein. Binding calls can cover weak binding; strength is not graded here.

For test [1], the target named is ADAM10 (endogenous; form not told) (human (endogenous in PHA blasts and Jurkat cells)) (UniProt O14672). The experiment in a line: co-IP; endogenous proteins, Jurkat T cells (JE6-1); 2 µg of mAbs against Lck (4/129, 4/215) or ADAM10 (11G2) with Protein G beads; blots with mAb 11G2 or anti-Grb2 (C-23).
Test [2] has as its target murine HA-tagged ADAM10 (mouse) (UniProt O35598). The experiment in a line: co-IP; HEK 293T cells transfected with HA-tagged murine ADAM10 alone or with human Endophilin-A2/EEN; IP with anti-HA (3F10) or anti-EEN (2F5); 1% NP-40 lysis buffer with 5 mM EDTA.

On to “Grb2 (endogenous) (from UniProt P62993 1-217)”, for which the binding result in test [1] was “binds”. For “human Endophilin-A2/EEN (from UniProt Q99961 1-368)”, the binding result in test [2] is reported as “binds”.
